No constants are given. Whether binding was seen depends on the method and setting. Some entries that bind do so weakly or less than the wild type.

Assay [1] has as its target T1, human CD6 (human) (UniProt P30203).
T1 sequence (looked up): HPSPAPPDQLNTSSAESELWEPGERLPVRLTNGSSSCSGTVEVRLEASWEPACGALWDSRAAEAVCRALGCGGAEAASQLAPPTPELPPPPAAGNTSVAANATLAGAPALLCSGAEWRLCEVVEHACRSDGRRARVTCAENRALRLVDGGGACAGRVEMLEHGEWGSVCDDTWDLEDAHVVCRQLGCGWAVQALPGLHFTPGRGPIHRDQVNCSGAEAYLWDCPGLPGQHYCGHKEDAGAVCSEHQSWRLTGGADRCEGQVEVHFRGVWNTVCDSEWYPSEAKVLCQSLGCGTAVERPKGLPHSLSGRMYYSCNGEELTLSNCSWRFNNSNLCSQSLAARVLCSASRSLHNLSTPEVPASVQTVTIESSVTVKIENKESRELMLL
As to the kind of experiment: ELISA on human CD6. (In general: An ELISA detects its analyte on a solid surface through an enzyme-linked reagent.)

The target in assay [2] is T1, human CD6 (human). As to the kind of experiment: flow cytometry on isolated Tregs from a healthy donor, co-stained with anti-CD6 (Commercial) (x-axis). In general terms: Flow cytometry measures light scatter and fluorescence of single cells or particles in a stream.

B1: meditope-enabled anti-CD6 mAb (antibody, IgG1, V domains shown)
VH: EVQLVESGGGLVKPGGSLKLSCAASGFKFSRYAMSWVRQAPGKRLEWVATISSGGSYIYYPDSVKGRFTISRDNVKNTLYLQMSSLRSEDTAIYYCARRDYDLDYFDSWGQGTLVTVSS
VL: DIQMTQSPILLSASVGDRVTITCKASRDIRSYLTWYQQRTNGSPRTLIYYATSLADGVPSRFSGSGSGQDYSLTISSLESDDIADYYCLQHGESPFTFGSGTKLEIKR
Turning to B1, the binding result in the assay with human CD6 (human) [1] and in the assay with human CD6 (human) [2] was “binds” in each case.

(Values after US20220073637A1.)
